Experimental data published in publication PMC12443970.
These are yes or no findings as the source states them, for the method shown. Binding seen in cells or lysates may run through a third protein. Some results given as binding are weak or reduced against the parent protein; the word gives no strength. For some assays here: Tags and fused reporters may be left off the sequences shown.

What was measured:
HA-PANK4 = target: T1, HA-PANK4 (UniProt Q9NVE7); assay: co-IP; HEK293T cells overexpressing PDK1 and PANK4; nondenaturing lysis buffer (20 mM Tris, 150 mM NaCl, 2 mM EDTA, 1% Triton X-100, 10% glycerol); anti-HA antibody at 4 °C overnight, Protein G Sepharose; immunoblotting
T1 sequence: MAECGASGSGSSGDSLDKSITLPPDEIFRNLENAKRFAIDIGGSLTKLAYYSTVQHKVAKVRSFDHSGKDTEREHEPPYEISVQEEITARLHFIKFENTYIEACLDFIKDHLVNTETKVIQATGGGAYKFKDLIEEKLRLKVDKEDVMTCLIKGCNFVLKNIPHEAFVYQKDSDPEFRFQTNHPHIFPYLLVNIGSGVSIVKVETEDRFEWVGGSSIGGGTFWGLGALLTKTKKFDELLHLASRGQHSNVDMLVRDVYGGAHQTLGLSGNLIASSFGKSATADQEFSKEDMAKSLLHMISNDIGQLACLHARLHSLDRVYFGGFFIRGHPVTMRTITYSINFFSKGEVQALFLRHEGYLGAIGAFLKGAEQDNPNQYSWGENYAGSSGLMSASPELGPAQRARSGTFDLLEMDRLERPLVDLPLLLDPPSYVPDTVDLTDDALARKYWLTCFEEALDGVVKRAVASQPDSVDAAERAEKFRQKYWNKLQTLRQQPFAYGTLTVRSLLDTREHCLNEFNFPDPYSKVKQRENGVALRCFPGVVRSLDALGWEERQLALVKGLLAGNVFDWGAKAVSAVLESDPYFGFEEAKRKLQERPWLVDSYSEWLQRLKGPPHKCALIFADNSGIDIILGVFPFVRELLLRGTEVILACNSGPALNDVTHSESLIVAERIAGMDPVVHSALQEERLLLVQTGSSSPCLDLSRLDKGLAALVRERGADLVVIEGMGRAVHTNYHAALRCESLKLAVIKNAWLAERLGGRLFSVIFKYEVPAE

[1] = target: T2, PANK4 (pantothenate kinase 4), endogenous in murine primary CD4+ T cells (mouse (endogenous in primary CD4+ T cells)) (UniProt Q80YV4); assay: co-IP; murine primary CD4+ T cells with or without 30 min of TCR/CD28 stimulation; nondenaturing lysis buffer (20 mM Tris, 150 mM NaCl, 2 mM EDTA, 1% Triton X-100, 10% glycerol); anti-PANK4 antibody at 4 °C overnight, Protein G Sepharose; immunoblotting
T2 sequence: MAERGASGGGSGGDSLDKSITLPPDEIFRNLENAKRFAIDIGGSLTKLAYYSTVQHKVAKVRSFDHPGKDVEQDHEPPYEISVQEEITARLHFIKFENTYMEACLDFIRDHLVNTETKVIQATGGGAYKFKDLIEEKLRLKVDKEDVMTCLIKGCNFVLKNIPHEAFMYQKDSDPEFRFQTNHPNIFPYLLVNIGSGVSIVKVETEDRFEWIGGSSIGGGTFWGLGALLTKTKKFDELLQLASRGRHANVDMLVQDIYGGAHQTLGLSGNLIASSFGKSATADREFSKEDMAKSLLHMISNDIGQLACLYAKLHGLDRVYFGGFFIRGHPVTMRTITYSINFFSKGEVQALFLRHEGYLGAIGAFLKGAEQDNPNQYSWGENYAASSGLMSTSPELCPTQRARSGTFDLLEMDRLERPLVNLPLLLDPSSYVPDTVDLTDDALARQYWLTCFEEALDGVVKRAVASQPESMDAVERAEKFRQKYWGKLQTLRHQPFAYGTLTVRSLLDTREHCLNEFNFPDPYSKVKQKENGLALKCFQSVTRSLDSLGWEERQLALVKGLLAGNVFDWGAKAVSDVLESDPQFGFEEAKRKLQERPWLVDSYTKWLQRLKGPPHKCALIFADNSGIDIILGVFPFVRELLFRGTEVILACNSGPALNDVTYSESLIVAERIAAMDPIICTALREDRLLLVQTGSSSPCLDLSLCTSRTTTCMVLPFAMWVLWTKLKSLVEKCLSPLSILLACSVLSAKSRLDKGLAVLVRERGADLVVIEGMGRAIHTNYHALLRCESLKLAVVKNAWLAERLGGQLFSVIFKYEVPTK

B1: Myc-PDK1 (protein, UniProt O15530 1-556)
chain: MARTTSQLYDAVPIQSSVVLCSCPSPSMVRTQTESSTPPGIPGGSRQGPAMDGTAAEPRPGAGSLQHAQPPPQPRKKRPEDFKFGKILGEGSFSTVVLARELATSREYAIKILEKRHIIKENKVPYVTRERDVMSRLDHPFFVKLYFTFQDDEKLYFGLSYAKNGELLKYIRKIGSFDETCTRFYTAEIVSALEYLHGKGIIHRDLKPENILLNEDMHIQITDFGTAKVLSPESKQARANSFVGTAQYVSPELLTEKSACKSSDLWALGCIIYQLVAGLPPFRAGNEYLIFQKIIKLEYDFPEKFFPKARDLVEKLLVLDATKRLGCEEMEGYGPLKAHPFFESVTWENLHQQTPPKLTAYLPAMSEDDEDCYGNYDNLLSQFGCMQVSSSSSSHSLSASDTGLPQRSGSNIEQYIHDLDSNSFELDLQFSEDEKRLLLEKQAGGNPWHQFVENNLILKMGPVDKRKGLFARRRQLLLTEGPHLYYVDPVNKVLKGEIPWSQELRPEAKNFKTFFVHTPNRTYYLMDPSGNAHKWCRKIQEVWRQRYQSHPDAAVQ
HA-PANK4
  binding: binds

B2: PDK1 (3-phosphoinositide-dependent protein kinase 1), endogenous in murine primary CD4+ T cells (protein, UniProt Q9Z2A0 1-559)
chain: MARTTSQLYDAVPIQSSVVLCSCPSPSMVRSQTEPGSSPGIPSGVSRQGSTMDGTTAEARPSTNPLQQHPAQLPPQPRKKRPEDFKFGKILGEGSFSTVVLARELATSREYAIKILEKRHIIKENKVPYVTRERDVMSRLDHPFFVKLYFTFQDDEKLYFGLSYAKNGELLKYIRKIGSFDETCTRFYTAEIVSALEYLHGKGIIHRDLKPENILLNEDMHIQITDFGTAKVLSPESKQARANSFVGTAQYVSPELLTEKSACKSSDLWALGCIIYQLVAGLPPFRAGNEYLIFQKIIKLEYHFPEKFFPKARDLVEKLLVLDATKRLGCEEMEGYGPLKAHPFFETITWENLHQQTPPKLTAYLPAMSEDDEDCYGNYDNLLSQFGFMQVSSSSSSHSLSTVETSLPQRSGSNIEQYIHDLDTNSFELDLQFSEDEKRLLLEKQAGGNPWHQFVENNLILKMGPVDKRKGLFARRRQLLLTEGPHLYYVDPVNKVLKGEIPWSQELRPEAKNFKTFFVHTPNRTYYLMDPSGNAHKWCRKIQEVWRQQYQSNPDAAVQ
[1]
  binding: binds
